Literature values as cited in US20110195898A1, “TREATMENT OF ALZHEIMER'S DISEASE AND MILD COGNITIVE IMPAIRMENT USING GNRH-I ANALOGS AND ONE OR MORE OF ACETYLCHOLINESTERASE INHIBITORS AND NMDA RECEPTOR ANTAGONISTS” (Voyager Pharmaceutical Corporation, priority 2004, published 2011).
At least one structure is not confirmed: it was looked up by name or label, or the drawing left a doubt.

System: mild-to-moderate Alzheimer's disease patients
Settings: Wilcock et al., one year trial comparing two AChEIs; cited from earlier work

## COc1ccc2c3c1O[C@H]1C[C@@H](O)C=C[C@@]31CCN(C)C2 [Galantamine]
  decline on ADAS-cog after 52 weeks of treatment: 2.22±0.77 points
